# Measured values from US8551701.
# Construct, isoform or probe ends are uncertain for at least one entry.
# System: BfaI restriction endonuclease
# Test: enzyme reaction in vitro
# Conditions: 5'-thiol (HRP conjugated) and 3'-biotin on SEQ 2, 37 C, 2 h, immobilised on streptavidin plate, HRP release depends on target concentration (about 1 nM detectable) and on BfaI amount, purified recombinant protein, label: HRP
sequence,measurement,value
GGTAGTGCGAAATGCCATTGCTAGTTGTTT / AAACAACTAGCAATGGCATTT [target-probe hybrid with BfaI site],activity on this sequence,active
